# Measured values: the supplement of paper PMC10849652
# Amino acid sequences for entries named in this document (tags omitted). A change or cut given only in a name is not applied to a line headed by its entry.
# UniProt Q96MG7: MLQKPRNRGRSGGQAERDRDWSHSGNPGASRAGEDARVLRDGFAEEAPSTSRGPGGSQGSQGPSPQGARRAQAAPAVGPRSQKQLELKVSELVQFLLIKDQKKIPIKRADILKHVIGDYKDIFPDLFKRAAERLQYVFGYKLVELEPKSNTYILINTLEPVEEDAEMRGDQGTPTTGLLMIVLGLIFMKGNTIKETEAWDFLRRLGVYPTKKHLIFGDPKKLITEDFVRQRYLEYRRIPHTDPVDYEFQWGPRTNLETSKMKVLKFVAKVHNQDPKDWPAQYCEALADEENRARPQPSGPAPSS
# UniProt Q8N543: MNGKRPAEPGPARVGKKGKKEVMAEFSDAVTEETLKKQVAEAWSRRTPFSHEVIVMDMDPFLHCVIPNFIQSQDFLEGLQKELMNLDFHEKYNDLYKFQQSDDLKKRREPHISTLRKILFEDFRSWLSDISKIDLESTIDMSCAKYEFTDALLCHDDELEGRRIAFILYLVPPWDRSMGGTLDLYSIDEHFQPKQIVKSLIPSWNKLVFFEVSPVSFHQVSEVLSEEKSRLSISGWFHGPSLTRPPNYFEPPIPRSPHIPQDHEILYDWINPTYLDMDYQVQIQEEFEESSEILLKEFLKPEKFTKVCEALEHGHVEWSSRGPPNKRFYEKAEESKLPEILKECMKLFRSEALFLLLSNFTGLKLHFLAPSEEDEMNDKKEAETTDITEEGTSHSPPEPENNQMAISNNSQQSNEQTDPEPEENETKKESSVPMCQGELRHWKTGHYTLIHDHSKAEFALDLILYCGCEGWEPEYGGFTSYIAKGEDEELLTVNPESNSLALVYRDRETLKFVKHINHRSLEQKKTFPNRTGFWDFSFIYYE
# UniProt P53384: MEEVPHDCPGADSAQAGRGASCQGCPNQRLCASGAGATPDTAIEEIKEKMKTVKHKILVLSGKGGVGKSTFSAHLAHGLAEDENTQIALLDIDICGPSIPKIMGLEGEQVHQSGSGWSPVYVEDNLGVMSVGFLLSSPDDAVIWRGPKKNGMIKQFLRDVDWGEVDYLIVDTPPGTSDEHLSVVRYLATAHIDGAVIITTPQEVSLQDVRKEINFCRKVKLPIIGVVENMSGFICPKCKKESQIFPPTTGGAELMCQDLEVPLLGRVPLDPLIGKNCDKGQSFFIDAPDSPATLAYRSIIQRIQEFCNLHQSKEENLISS
# UniProt Q9NWU1, whole entry, looked up: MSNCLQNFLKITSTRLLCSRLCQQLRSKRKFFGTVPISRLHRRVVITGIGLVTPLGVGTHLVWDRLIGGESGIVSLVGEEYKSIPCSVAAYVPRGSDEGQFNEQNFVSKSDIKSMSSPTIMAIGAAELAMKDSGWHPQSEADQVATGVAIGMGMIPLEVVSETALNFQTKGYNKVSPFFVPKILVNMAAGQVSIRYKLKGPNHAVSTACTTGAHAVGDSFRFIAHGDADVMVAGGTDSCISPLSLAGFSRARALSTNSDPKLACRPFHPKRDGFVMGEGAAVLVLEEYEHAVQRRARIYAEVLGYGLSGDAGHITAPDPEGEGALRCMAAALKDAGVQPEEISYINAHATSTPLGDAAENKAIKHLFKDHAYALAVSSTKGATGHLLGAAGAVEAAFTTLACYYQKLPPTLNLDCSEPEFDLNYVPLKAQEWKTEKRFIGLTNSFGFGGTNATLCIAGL
# UniProt Q9Y6R0: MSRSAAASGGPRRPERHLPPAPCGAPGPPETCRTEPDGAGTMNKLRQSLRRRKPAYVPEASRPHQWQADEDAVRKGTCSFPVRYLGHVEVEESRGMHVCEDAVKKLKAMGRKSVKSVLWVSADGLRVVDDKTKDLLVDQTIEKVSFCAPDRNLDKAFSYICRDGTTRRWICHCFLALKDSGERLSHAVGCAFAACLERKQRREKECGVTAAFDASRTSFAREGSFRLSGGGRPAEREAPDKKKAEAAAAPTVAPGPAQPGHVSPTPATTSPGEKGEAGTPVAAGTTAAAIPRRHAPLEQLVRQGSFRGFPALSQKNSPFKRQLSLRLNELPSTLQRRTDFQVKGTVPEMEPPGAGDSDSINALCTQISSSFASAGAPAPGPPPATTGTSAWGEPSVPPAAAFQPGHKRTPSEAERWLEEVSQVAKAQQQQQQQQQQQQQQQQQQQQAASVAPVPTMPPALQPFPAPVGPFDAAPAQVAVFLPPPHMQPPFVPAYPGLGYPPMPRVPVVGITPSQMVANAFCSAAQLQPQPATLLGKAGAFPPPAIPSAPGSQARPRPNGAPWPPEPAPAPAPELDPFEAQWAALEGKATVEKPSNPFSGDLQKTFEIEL
# UniProt Q08J23, whole entry, looked up: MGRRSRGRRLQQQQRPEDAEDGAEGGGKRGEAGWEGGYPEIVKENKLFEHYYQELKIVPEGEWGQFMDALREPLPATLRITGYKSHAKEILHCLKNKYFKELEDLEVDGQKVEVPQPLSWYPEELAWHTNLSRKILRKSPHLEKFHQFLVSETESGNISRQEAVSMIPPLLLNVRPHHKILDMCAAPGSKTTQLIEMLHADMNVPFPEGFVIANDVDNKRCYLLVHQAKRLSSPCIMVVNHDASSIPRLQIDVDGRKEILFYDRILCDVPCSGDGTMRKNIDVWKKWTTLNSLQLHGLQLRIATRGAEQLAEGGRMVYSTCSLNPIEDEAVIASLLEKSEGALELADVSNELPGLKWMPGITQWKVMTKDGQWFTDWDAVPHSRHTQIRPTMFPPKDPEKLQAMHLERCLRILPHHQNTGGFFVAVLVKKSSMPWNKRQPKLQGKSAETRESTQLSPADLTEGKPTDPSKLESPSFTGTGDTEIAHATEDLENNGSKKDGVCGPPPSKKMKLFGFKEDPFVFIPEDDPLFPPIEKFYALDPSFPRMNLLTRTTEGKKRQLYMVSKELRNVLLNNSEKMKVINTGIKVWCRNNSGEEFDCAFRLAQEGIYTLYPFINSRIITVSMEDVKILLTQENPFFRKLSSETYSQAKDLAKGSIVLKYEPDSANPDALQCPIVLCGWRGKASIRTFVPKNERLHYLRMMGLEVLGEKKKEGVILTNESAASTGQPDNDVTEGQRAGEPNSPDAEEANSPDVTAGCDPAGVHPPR
# UniProt O75694: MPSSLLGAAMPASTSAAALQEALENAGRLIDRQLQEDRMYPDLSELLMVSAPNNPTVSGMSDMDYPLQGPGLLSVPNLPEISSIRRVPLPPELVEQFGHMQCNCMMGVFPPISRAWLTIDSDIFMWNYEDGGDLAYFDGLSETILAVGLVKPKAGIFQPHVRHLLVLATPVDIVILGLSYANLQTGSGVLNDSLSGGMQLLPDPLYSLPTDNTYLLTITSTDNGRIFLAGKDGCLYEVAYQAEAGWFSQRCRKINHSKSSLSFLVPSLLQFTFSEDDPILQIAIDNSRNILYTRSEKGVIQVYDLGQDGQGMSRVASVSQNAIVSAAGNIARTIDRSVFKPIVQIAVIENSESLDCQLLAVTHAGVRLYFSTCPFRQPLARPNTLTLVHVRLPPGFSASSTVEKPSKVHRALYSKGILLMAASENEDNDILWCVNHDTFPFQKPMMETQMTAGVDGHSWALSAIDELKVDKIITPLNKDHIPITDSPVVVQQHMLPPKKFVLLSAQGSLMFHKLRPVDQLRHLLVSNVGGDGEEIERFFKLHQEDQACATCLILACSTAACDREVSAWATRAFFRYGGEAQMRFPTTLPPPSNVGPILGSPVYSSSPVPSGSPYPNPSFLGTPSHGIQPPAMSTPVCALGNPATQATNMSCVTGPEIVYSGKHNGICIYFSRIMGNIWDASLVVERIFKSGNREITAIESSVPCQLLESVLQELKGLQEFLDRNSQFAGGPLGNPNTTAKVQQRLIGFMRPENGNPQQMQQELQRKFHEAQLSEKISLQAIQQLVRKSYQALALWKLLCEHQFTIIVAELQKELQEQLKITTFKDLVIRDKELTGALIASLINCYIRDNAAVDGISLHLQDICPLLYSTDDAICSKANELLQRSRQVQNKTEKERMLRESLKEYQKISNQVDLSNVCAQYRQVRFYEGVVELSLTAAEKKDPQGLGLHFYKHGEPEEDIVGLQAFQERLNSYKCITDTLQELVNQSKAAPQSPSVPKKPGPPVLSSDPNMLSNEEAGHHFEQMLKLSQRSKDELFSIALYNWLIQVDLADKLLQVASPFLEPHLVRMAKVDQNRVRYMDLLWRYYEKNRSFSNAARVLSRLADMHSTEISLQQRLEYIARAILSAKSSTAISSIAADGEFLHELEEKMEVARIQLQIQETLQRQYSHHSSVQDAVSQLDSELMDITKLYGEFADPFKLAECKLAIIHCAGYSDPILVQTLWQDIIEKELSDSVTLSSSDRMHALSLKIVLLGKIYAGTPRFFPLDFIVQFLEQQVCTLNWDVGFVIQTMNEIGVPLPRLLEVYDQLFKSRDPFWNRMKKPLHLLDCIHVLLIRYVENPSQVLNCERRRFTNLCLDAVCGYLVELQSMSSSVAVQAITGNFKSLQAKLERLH
# UniProt Q8N6M0: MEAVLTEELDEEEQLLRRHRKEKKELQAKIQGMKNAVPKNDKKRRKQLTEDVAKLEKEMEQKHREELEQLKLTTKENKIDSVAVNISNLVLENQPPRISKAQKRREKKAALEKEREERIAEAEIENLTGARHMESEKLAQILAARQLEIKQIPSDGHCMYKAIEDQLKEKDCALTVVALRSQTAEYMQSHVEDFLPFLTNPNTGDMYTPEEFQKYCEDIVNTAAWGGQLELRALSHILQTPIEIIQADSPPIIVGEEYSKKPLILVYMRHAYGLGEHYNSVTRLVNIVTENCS
# UniProt P52948: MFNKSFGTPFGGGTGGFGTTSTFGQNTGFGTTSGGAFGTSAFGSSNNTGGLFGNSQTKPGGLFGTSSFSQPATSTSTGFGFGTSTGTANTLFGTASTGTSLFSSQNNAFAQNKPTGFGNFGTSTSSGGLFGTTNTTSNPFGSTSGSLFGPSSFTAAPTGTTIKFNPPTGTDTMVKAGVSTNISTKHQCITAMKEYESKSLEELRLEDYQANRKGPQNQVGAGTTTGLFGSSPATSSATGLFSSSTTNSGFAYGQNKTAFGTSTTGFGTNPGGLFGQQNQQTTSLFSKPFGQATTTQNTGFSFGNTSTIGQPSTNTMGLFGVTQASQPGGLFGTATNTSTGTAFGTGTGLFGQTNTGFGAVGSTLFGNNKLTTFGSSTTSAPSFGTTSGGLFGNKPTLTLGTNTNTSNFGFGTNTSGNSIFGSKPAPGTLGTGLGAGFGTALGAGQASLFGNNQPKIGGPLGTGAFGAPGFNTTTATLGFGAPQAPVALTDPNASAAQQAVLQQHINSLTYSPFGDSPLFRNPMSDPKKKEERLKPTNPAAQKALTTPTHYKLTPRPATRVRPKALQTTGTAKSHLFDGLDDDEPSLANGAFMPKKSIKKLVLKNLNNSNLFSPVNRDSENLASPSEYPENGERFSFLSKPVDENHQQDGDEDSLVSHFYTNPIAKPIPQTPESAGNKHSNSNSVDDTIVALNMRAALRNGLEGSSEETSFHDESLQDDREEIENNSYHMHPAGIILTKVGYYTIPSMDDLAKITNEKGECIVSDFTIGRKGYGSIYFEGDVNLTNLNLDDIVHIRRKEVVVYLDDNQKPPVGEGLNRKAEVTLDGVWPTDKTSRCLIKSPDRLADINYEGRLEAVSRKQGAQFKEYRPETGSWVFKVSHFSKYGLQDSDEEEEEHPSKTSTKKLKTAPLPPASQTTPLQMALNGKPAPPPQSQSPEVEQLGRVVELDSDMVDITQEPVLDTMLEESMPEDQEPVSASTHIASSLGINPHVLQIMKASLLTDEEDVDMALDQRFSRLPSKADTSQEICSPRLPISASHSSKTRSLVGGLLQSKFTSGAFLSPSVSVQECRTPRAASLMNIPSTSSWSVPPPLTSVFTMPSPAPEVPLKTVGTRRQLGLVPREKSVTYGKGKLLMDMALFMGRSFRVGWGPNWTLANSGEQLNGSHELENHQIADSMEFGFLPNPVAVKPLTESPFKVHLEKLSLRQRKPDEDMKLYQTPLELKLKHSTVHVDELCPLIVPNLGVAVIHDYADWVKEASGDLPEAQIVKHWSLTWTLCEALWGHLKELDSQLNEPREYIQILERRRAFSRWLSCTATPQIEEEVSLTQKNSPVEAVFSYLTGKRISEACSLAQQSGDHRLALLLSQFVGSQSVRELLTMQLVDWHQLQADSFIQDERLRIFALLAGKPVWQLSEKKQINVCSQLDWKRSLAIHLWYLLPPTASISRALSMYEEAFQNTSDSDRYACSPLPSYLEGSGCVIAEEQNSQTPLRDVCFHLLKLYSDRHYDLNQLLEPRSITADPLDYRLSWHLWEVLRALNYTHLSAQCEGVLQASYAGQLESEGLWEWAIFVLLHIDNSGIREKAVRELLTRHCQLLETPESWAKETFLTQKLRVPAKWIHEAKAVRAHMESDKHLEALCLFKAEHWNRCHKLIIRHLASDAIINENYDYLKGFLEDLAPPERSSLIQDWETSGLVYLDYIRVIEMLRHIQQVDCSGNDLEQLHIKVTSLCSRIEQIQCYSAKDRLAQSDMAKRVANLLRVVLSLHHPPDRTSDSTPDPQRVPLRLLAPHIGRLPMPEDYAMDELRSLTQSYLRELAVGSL
# This is one part of the list.
# How the values were obtained:
# Test in all cases: log2 fold change, soluble protein after heating vs DMSO (PISA); higher = thermal stabilisation; K562 cells, 10 uM, 30 min; active = over 0.2 and 3.5 SD of the protein, either way, in both replicates (recomputed)
# [1] = compound: COC1=CC=C(C=C1)CN2C=CC3=C2C=C(C=C3)C(=O)NO
# How it was run: (§1)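 Soluble protein was quantified by TMTpro 16plex LC-MS/MS after channel sums were equalised. It was obtained as the supernatant after 21,000xg for 90 min from pooled aliquots of K562 cells (2×10^6 cells/mL, 10 μM compound, 30 min) heated for 3 min across 48°C-58°C and extracted in PBS with 0.5% NP-40 at 4°C. Thermal stability values are relative to control samples and come from duplicates. They are given as log2 fold changes.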
# filanesib = compound: CON(C)C(=O)N1N=C(c2cc(F)ccc2F)S[C@@]1(CCCN)c1ccccc1 [filanesib]
# How it was run: as §1
# zotarolimus = compound: CO[C@H]1C[C@@H]2CC[C@@H](C)[C@@](O)(O2)C(=O)C(=O)N2CCCC[C@H]2C(=O)O[C@H]([C@H](C)C[C@@H]2CC[C@H](n3cnnn3)[C@H](OC)C2)CC(=O)[C@H](C)/C=C(\C)[C@@H](O)[C@@H](OC)C(=O)[C@H](C)C[C@H](C)/C=C/C=C/C=C/1C [zotarolimus]
# How it was run: as §1
# idasanutlin = compound: COc1cc(C(=O)O)ccc1NC(=O)[C@@H]1N[C@@H](CC(C)(C)C)[C@](C#N)(c2ccc(Cl)cc2F)[C@H]1c1cccc(Cl)c1F [idasanutlin]
# How it was run: as §1
# alisertib = compound: COc1cc(Nc2ncc3c(n2)-c2ccc(Cl)cc2C(c2c(F)cccc2OC)=NC3)ccc1C(=O)O [alisertib]
# How it was run: as §1
# [2] = compound: COc1cc2nc(-c3cc(F)ccc3O)nc(N[C@@H]3CNC[C@H]3C(C)(C)O)c2cc1OC
# How it was run: as §1
# gefitinib = compound: COc1cc2ncnc(Nc3ccc(F)c(Cl)c3)c2cc1OCCCN1CCOCC1 [gefitinib]
# How it was run: as §1
# [3] = compound: COc1cccc2cc(-c3nc([C@H]4CC[C@H](C(=O)O)CC4)n4ncnc(N)c34)[nH]c12
# How it was run: as §1
# lapatinib = compound: CS(=O)(=O)CCNCc1ccc(-c2ccc3ncnc(Nc4ccc(OCc5cccc(F)c5)c(Cl)c4)c3c2)o1 [lapatinib]
# How it was run: as §1
# pictilisib = compound: CS(=O)(=O)N1CCN(Cc2cc3nc(-c4cccc5[nH]ncc45)nc(N4CCOCC4)c3s2)CC1 [pictilisib]
# How it was run: as §1
# [4] = compound: CS(=O)(=O)c1ccc(-c2cnc(N)c(C(=O)Nc3ccccc3)n2)cc1
# How it was run: as §1
# crizotinib = compound: C[C@@H](Oc1cc(-c2cnn(C3CCNCC3)c2)cnc1N)c1c(Cl)ccc(F)c1Cl [crizotinib]
# How it was run: as §1
# [5] = compound: C[C@@H]1COCCN1C2=NC(=NC(=C2)C3(CC3)S(=O)(=O)C)C4=C5C=CNC5=CC=C4
# How it was run: as §1
# [6] = compound: C[C@H](C1=CC=C(C=C1)C(=O)NC2=C3C=CNC3=NC=C2)N
# How it was run: as §1
# duvelisib = compound: C[C@H](Nc1ncnc2nc[nH]c12)c1cc2cccc(Cl)c2c(=O)n1-c1ccccc1 [duvelisib]
# How it was run: as §1
# gandotinib = compound: Cc1cc(Nc2cc(CN3CCOCC3)c3nc(C)c(Cc4ccc(Cl)cc4F)n3n2)n[nH]1 [gandotinib]
# How it was run: as §1
# tozasertib = compound: Cc1cc(Nc2cc(N3CCN(C)CC3)nc(Sc3ccc(NC(=O)C4CC4)cc3)n2)n[nH]1 [tozasertib]
# How it was run: as §1
# [7] = compound: Cc1cc(SCc2sc(-c3ccc(C(F)(F)F)cc3)nc2C)ccc1OCC(=O)O
# How it was run: as §1
# doramapimod = compound: Cc1ccc(-n2nc(C(C)(C)C)cc2NC(=O)Nc2ccc(OCCN3CCOCC3)c3ccccc23)cc1 [doramapimod]
# How it was run: as §1
# ispinesib = compound: Cc1ccc(C(=O)N(CCCN)[C@@H](c2nc3cc(Cl)ccc3c(=O)n2Cc2ccccc2)C(C)C)cc1 [ispinesib]
# How it was run: as §1
Target,log2 fold change [1],log2 fold change (filanesib),log2 fold change (zotarolimus),log2 fold change (idasanutlin),log2 fold change (alisertib),log2 fold change [2],log2 fold change (gefitinib),log2 fold change [3],log2 fold change (lapatinib),log2 fold change (pictilisib),log2 fold change [4],log2 fold change (crizotinib),log2 fold change [5],log2 fold change [6],log2 fold change (duvelisib),log2 fold change (gandotinib),log2 fold change (tozasertib),log2 fold change [7],log2 fold change (doramapimod),log2 fold change (ispinesib)
NUP35 (UniProt Q8NFH5),inactive: -0.02,inactive: -0.011,inactive: -0.056,inactive: 0.002,inactive: -0.02,inactive: -0.062,inactive: -0.015,inactive: -0.019,inactive: -0.004,inactive: -0.051,inactive: 0.036,inactive: -0.04,inactive: 0.12,inactive: -0.022,inactive: 0.072,inactive: 0.023,inactive: -0.026,inactive: -0.014,inactive: 0.111,inactive: 0.001
NSMCE3 (UniProt Q96MG7),inactive: 0.035,inactive: -0.021,inactive: -0.01,inactive: -0.09,inactive: -0.117,inactive: 0.046,inactive: -0.005,inactive: 0.072,inactive: -0.064,inactive: 0.046,inactive: -0.022,inactive: 0.084,inactive: -0.015,inactive: 0.09,inactive: 0.076,inactive: 0.007,inactive: -0.048,inactive: 0.034,inactive: -0.115,inactive: 0.027
OGFOD1 (UniProt Q8N543),active: -0.294,inactive: -0.05,inactive: -0.02,inactive: -0.038,inactive: -0.021,inactive: 0.001,inactive: 0.015,inactive: 0.041,inactive: -0.034,inactive: 0.065,inactive: 0.034,inactive: -0.001,inactive: 0.042,inactive: 0.003,–,inactive: -0.009,–,inactive: -0.021,inactive: -0.015,inactive: -0.043
OSTC (UniProt Q9NRP0),inactive: -0.05,inactive: -0.171,inactive: -0.105,inactive: -0.041,inactive: -0.101,inactive: -0.184,inactive: 0.018,inactive: 0.026,inactive: -0.041,inactive: 0.162,inactive: 0.044,inactive: -0.047,inactive: 0.132,inactive: -0.089,–,inactive: -0.112,–,inactive: -0.042,inactive: 0.028,inactive: -0.117
NSUN5 isoform 2 (UniProt Q96P11),inactive: -0.013,inactive: 0.093,inactive: 0.007,inactive: -0.024,inactive: -0.133,inactive: 0.01,inactive: -0.027,inactive: 0.027,inactive: 0.064,inactive: -0.113,inactive: -0.085,inactive: -0.001,inactive: -0.007,inactive: 0.183,inactive: -0.005,inactive: 0.037,inactive: -0.015,inactive: -0.141,inactive: 0.006,inactive: -0.025
NUBP1 (UniProt P53384),inactive: -0.022,inactive: -0.028,inactive: -0.007,inactive: -0.106,inactive: -0.013,inactive: 0.068,inactive: 0.002,inactive: 0.027,inactive: -0.047,inactive: 0.012,inactive: 0.064,inactive: 0.029,inactive: 0.11,inactive: -0.05,inactive: 0.049,inactive: -0.037,inactive: -0.01,inactive: 0.076,inactive: 0.022,inactive: -0.008
OXSM (UniProt Q9NWU1),inactive: 0.033,inactive: -0.014,inactive: -0.005,inactive: 0.039,inactive: -0.131,inactive: -0.041,inactive: -0.001,inactive: 0.025,inactive: 0.007,inactive: 0.057,inactive: 0.016,inactive: 0.053,inactive: 0.036,inactive: -0.07,–,inactive: -0.054,–,inactive: -0.002,inactive: -0.055,inactive: 0.077
NUMBL (UniProt Q9Y6R0),inactive: -0.079,inactive: 0.128,inactive: -0.012,inactive: -0.061,inactive: -0.168,inactive: 0.005,inactive: 0.036,inactive: -0.149,inactive: 0.012,inactive: -0.022,inactive: 0.13,inactive: -0.021,inactive: 0.056,inactive: 0.044,–,inactive: -0.025,–,inactive: 0.108,inactive: 0.109,inactive: -0.187
NSUN2 (UniProt Q08J23),inactive: -0.153,inactive: -0.002,inactive: -0.046,inactive: 0.021,inactive: -0.022,inactive: -0.235,inactive: 0.015,inactive: -0.003,inactive: 0.035,inactive: -0.088,inactive: -0.107,inactive: -0.034,inactive: 0.031,inactive: 0.008,–,inactive: -0.151,–,inactive: 0.053,inactive: 0.067,inactive: -0.098
NUP155 (UniProt O75694),inactive: 0.179,inactive: -0.122,inactive: 0.02,inactive: -0.085,inactive: -0.018,inactive: -0.049,inactive: 0.013,inactive: 0,inactive: 0.007,inactive: -0.059,inactive: -0.01,inactive: -0.137,inactive: 0.073,inactive: -0.046,inactive: 0.02,inactive: -0.132,inactive: -0.046,inactive: 0.053,inactive: 0.048,inactive: -0.055
NT5C3A (UniProt Q9H0P0),inactive: -0.002,inactive: 0.109,inactive: 0.044,inactive: 0.077,inactive: -0.085,inactive: -0.053,inactive: 0.099,inactive: -0.22,inactive: 0.1,inactive: 0.003,inactive: 0.093,inactive: -0.104,inactive: -0.102,inactive: 0.187,inactive: -0.024,inactive: 0.034,inactive: 0.015,inactive: 0.122,inactive: 0.11,inactive: -0.206
OTUD6B (UniProt Q8N6M0),inactive: 0.016,inactive: -0.025,inactive: 0.1,inactive: -0.012,inactive: 0.005,inactive: 0.005,inactive: -0.017,inactive: -0.013,inactive: -0.028,inactive: 0.017,inactive: 0.013,inactive: -0.146,inactive: 0.024,inactive: 0,–,inactive: -0.086,–,inactive: 0.122,inactive: 0.009,inactive: -0.165
OTUD4 (UniProt Q01804),inactive: -0.122,inactive: 0.182,inactive: 0.022,inactive: 0.063,inactive: -0.106,inactive: -0.062,inactive: 0.039,inactive: 0.013,inactive: 0.095,inactive: -0.025,inactive: 0.018,inactive: -0.001,inactive: -0.094,inactive: 0.106,–,inactive: 0.059,–,inactive: -0.001,inactive: 0.052,inactive: -0.034
OTUD5 isoform 5 (UniProt Q96G74),inactive: -0.024,inactive: 0.011,inactive: 0.062,inactive: 0.022,inactive: -0.06,inactive: -0.081,inactive: -0.002,inactive: 0.082,inactive: 0.023,inactive: 0.143,inactive: 0.04,inactive: 0.097,inactive: 0.05,inactive: -0.075,inactive: -0.027,inactive: -0.1,inactive: 0.023,inactive: -0.049,inactive: -0.017,inactive: 0.104
NUCKS1 (UniProt Q9H1E3),inactive: -0.035,inactive: 0.051,inactive: -0.031,inactive: -0.011,inactive: -0.071,inactive: 0.182,inactive: -0.001,inactive: 0.02,inactive: -0.064,inactive: -0.011,inactive: -0.147,active: 0.274,inactive: -0.133,inactive: 0.029,–,inactive: 0.001,–,inactive: -0.089,inactive: -0.03,inactive: 0.168
PAAF1 (UniProt Q9BRP4),inactive: -0.013,inactive: -0.082,inactive: -0.008,inactive: -0.026,inactive: -0.062,inactive: 0.026,inactive: -0.002,inactive: 0.047,inactive: 0.027,inactive: 0.048,inactive: -0.003,inactive: -0.003,inactive: 0.078,inactive: -0.071,–,inactive: -0.035,–,inactive: 0.018,inactive: -0.022,inactive: 0.047
NUP98 (UniProt P52948),inactive: -0.003,inactive: 0.045,inactive: 0.009,inactive: 0.061,inactive: 0.007,inactive: 0.047,inactive: 0.026,inactive: -0.057,inactive: 0.02,inactive: 0.027,inactive: 0.031,inactive: -0.02,inactive: 0.007,inactive: -0.009,–,inactive: -0.044,–,inactive: 0.1,inactive: 0.022,inactive: 0.001

# In another format: results already given.
Target	log2 fold change [1]	log2 fold change (filanesib)	log2 fold change (zotarolimus)	log2 fold change (idasanutlin)	log2 fold change (alisertib)	log2 fold change [2]	log2 fold change (gefitinib)	log2 fold change [3]	log2 fold change (lapatinib)	log2 fold change (pictilisib)	log2 fold change [4]	log2 fold change (crizotinib)	log2 fold change [5]	log2 fold change [6]	log2 fold change (duvelisib)	log2 fold change (gandotinib)	log2 fold change (tozasertib)	log2 fold change [7]	log2 fold change (doramapimod)	log2 fold change (ispinesib)
NT5C3A (UniProt Q9H0P0)	inactive: -0.002	inactive: 0.109	inactive: 0.044	inactive: 0.077	inactive: -0.085	inactive: -0.053	inactive: 0.099	inactive: -0.22	inactive: 0.1	inactive: 0.003	inactive: 0.093	inactive: -0.104	inactive: -0.102	inactive: 0.187	inactive: -0.024	inactive: 0.034	inactive: 0.015	inactive: 0.122	inactive: 0.11	inactive: -0.206
OTUD4 (UniProt Q01804)	inactive: -0.122	inactive: 0.182	inactive: 0.022	inactive: 0.063	inactive: -0.106	inactive: -0.062	inactive: 0.039	inactive: 0.013	inactive: 0.095	inactive: -0.025	inactive: 0.018	inactive: -0.001	inactive: -0.094	inactive: 0.106	–	inactive: 0.059	–	inactive: -0.001	inactive: 0.052	inactive: -0.034
OTUD5 isoform 5 (UniProt Q96G74)	inactive: -0.024	inactive: 0.011	inactive: 0.062	inactive: 0.022	inactive: -0.06	inactive: -0.081	inactive: -0.002	inactive: 0.082	inactive: 0.023	inactive: 0.143	inactive: 0.04	inactive: 0.097	inactive: 0.05	inactive: -0.075	inactive: -0.027	inactive: -0.1	inactive: 0.023	inactive: -0.049	inactive: -0.017	inactive: 0.104
NUCKS1 (UniProt Q9H1E3)	inactive: -0.035	inactive: 0.051	inactive: -0.031	inactive: -0.011	inactive: -0.071	inactive: 0.182	inactive: -0.001	inactive: 0.02	inactive: -0.064	inactive: -0.011	inactive: -0.147	active: 0.274	inactive: -0.133	inactive: 0.029	–	inactive: 0.001	–	inactive: -0.089	inactive: -0.03	inactive: 0.168
